Assay results reported in PMC3196520.
These are yes or no findings as the source states them, for the method shown. Binding seen in cells or lysates may run through a third protein. Some binding calls cover weakened binding; strength is not graded here.

Protein sequences, listed by entry. Tags and fused reporters are not part of them.
UniProt O54941: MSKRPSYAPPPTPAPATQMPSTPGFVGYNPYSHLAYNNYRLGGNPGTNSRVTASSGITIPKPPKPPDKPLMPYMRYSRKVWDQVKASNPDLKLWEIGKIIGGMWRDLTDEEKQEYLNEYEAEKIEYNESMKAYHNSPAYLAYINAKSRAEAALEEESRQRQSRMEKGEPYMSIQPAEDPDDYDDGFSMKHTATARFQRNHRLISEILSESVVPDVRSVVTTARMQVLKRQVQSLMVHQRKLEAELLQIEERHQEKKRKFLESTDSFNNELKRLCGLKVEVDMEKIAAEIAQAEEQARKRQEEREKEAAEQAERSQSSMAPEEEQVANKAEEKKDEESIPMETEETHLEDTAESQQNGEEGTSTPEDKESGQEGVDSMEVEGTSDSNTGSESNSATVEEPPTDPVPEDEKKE
UniProt G5E870: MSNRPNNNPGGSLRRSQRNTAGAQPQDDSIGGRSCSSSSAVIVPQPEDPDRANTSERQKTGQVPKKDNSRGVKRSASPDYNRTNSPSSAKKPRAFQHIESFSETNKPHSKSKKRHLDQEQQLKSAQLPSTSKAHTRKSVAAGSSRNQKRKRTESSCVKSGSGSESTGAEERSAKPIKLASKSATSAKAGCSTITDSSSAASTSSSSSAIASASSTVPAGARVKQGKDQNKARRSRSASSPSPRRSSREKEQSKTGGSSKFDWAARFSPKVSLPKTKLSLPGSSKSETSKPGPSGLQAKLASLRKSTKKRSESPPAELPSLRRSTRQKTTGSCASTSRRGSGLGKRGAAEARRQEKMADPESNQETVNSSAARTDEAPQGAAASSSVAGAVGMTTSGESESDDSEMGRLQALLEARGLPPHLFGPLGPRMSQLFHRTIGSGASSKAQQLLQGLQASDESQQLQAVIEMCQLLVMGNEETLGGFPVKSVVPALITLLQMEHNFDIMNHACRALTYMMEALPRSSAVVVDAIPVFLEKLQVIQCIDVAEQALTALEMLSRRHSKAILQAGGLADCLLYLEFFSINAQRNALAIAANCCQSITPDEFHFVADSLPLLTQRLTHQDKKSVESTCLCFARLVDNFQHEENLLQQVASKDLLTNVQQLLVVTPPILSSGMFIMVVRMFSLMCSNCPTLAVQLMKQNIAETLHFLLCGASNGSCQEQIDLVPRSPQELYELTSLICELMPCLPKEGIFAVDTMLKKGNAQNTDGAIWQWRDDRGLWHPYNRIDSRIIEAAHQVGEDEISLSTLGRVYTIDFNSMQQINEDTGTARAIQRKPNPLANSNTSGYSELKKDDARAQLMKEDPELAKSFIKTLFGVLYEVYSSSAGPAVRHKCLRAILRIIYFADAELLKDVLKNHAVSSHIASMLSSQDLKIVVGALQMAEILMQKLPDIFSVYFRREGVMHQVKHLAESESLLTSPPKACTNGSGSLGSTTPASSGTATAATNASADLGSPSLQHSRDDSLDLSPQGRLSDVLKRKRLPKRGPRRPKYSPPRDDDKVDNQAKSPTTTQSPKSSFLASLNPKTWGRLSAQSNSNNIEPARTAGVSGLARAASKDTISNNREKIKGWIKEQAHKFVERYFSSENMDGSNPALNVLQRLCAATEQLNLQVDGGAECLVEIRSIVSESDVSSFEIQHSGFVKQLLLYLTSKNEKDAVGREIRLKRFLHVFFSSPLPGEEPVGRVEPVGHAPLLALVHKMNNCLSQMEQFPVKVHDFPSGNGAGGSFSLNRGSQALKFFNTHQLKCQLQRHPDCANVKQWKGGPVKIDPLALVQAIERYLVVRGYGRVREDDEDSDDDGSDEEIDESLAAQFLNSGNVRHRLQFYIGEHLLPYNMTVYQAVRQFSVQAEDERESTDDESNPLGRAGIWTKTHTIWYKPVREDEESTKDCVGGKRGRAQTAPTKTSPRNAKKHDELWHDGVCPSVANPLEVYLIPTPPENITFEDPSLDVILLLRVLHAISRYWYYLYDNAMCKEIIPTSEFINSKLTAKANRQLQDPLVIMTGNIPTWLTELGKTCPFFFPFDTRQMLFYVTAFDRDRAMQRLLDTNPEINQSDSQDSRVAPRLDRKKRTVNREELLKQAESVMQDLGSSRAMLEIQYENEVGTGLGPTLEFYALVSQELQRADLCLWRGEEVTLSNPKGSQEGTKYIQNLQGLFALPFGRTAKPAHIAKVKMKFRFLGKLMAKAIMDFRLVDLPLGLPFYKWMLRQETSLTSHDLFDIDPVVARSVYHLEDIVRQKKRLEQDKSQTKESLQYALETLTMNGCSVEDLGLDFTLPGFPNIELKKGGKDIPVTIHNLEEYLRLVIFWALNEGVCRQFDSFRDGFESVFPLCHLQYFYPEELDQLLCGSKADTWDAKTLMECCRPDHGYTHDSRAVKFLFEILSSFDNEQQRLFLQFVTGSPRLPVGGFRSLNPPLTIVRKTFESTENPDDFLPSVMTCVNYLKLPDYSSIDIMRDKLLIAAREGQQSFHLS

Biological target: myc-tagged BAF57 (UniProt O54941)
Experiment: co-IP; wild type or mutant Trip12 ectopically expressed with or without myc-tagged BAF57; Myc-BAF57 immunoprecipitated with anti-myc antibody, immunoblotted with anti-Trip12 or anti-myc antibody

## Trip12, wild type, ectopically expressed (from UniProt G5E870 1-2025) (enzyme)
  binding: binds
